The values that follow are results of earlier work, collected in EP1857450A1, “Novel enantiomeric compounds for treatment of cardiac arrhythmias and methods of use” (Aryx Therapeutics, priority 1999, dated 2001).

SMILES strings stand for the structures.

The conditions of this data set: share of the time pulmonary toxicity is fatal; cited from earlier work.

Consider `CCCCc1oc2ccccc2c1C(=O)c1cc(I)c(OCCN(CC)CC)c(I)c1` [amiodarone], for which the pulmonary toxicity fatal is 10%.
